{"source": "patent US20230181612A1", "about": "“AMINOGLYCOSIDE DERIVATIVES AND USES THEREOF IN TREATING GENETIC DISORDERS” (ELOXX PHARMACEUTICALS LTD., priority 2017, published 2023)", "origin": "cited, not measured here", "tested_on": "human fibroblast cells", "conditions": "cited from earlier work", "note": "Some results were stated once for a whole list of compounds, not compound by compound."}
{"compound": "NC[C@H]1O[C@H](O[C@H]2[C@H](O)[C@@H](O[C@H]3O[C@H](CO)[C@@H](O)[C@H](N)[C@H]3O)[C@H](N)C[C@@H]2N)[C@H](O)[C@@H](O)[C@@H]1O", "note": "[kanamycin]", "values": [{"measurement": "LD50", "result": "2.5 to 5.0", "unit": "mg/mL"}]}
